# Primary screen of a compound library

By UniProt entry, the sequences of proteins in these tests, tags left out.
UniProt E9BF75, entry or part of it: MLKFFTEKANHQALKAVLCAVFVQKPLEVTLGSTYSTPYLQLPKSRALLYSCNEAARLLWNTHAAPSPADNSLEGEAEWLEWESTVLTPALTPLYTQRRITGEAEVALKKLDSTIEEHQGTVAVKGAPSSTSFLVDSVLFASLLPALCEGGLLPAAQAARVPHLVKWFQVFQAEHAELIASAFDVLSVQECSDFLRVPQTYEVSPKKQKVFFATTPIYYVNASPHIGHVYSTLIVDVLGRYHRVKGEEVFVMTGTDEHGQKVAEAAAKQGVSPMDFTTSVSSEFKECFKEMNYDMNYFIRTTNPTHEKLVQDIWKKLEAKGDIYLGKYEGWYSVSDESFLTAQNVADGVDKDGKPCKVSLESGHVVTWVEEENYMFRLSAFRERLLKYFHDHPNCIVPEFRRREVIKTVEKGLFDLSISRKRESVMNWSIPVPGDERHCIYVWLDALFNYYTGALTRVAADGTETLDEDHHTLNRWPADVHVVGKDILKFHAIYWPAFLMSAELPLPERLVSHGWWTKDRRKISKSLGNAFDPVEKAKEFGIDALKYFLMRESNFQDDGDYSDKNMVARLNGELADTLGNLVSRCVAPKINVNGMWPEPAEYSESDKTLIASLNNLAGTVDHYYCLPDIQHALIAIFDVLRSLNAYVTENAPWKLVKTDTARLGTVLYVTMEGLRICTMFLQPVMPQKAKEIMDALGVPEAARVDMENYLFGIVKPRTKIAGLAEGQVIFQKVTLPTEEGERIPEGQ

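Primary screen of methionyl-tRNA synthetase; the read-out is not stated. Target: Methionyl-tRNA synthetase (putative), Leishmania donovani (UniProt E9BF75). The test concentration is not given. Values are per cent inhibition. Size under these conditions: about 68,000 compounds, about 24 of them at 50% or above in at least one test.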

Results are percentages, as filed.
The controls that fix the scale are not given in the record; negative values are as filed.
Compounds were drawn at random from those tested, without regard to their results.

* Cc1ccc(NS(=O)(=O)c2cc3c(c(C(=O)O)c2)OCCO3)cc1F | 18.62%
* Cc1ccc(N2CCCN(C(=O)C3(C#N)CCCCC3)CC2)nn1 | 13.27%
* CN(Cc1cnn(C)c1)C(=O)NCc1nnc2n1CCC2 | 7.981%
* CCN(CC)C(=O)Cn1cc(C(=O)NCCCc2scnc2C)nn1 | 0.7792%
* Cc1ccc(N2C[C@@H]3CN(Cc4csc(C)n4)CCO[C@@H]3C2)nn1 | 17.29%
* COC(=O)c1ccc(C2SCC(=O)Nc3c2cnn3C2CCCC2)cc1 (centres undefined) | 10.76%
* COc1ccc(C2CCCN2c2ccnc(C)c2Cl)c(OC)c1 (centres undefined) | 19.73%
* COCCN1CCC(c2nc3c([nH]2)CC(C)(C)CNC3=O)C1 (centres undefined) | 6.367%
* CCCC(=O)N1CCN(CCN(C)C)c2nc(C)ccc2C1 | 17.58%
* O=C(c1ccc(F)cc1F)N1C[C@@H](O)[C@H](N2CCOCC2)C1 | 4.545%
* Cc1nc(C(=O)N2CCOCC2)cc(N2CCC(C(N)=O)CC2)n1 | 9.945%
* COC(C)(C)Cn1ccnc1-c1cccc(C(C)N(C)C)c1 (centres undefined) | 6.87%
* Cc1cn(Cc2ccc(F)c(F)c2)nc1N | 1.351%
* Fc1cccnc1N1CCC2(CNCCC2(F)F)C1 (centres undefined) | -2.439%
* CC(C)Cn1nc(-c2ccc(C(=O)O)cc2)cc1-c1ccc(F)cc1 | 7.558%
* CC(C)(C)c1c[nH]c([C@@H]2COCCN2C2CCOCC2)n1 | 1.695%
* O=C(c1ccc(Cl)o1)N1CCCC(c2cc(C(F)(F)F)[nH]n2)C1 (centres undefined) | 14.17%
* CNc1cncc(C2CCCN2Cc2ccnc(C)n2)n1 (centres undefined) | 9.647%
* Cc1cc(NC(=O)CNC2CCCN(c3cccnn3)C2)on1 (centres undefined) | 14.25%
* CCCn1c(NC(=O)CNC(=O)OCC)nc2ccccc21 | 13.09%
* Cn1ccnc1C(O)c1ccccc1N1CCN(CC2CCCC2)CC1 (centres undefined) | -6.395%
* CCOc1ccccc1C(CC(=O)Nc1ccc(C)cn1)NC(C)=O (centres undefined) | 13.27%
* Cc1noc(Cl)c1CCC(=O)N1CCCCC1Cn1cccn1 (centres undefined) | 8.451%
* COCCC(=O)N1CCCC1c1csc(Nc2ncccn2)n1 (centres undefined) | 7.765%
* COC(C)c1noc(CN(C)c2nccnc2C#N)n1 (centres undefined) | 15.38%
* COCC1COCCC12CCN(C(=O)CCc1ccccc1)CC2 (centres undefined) | 7.619%
* NC(=O)C1CCN(C(=O)NC2CCc3cc(F)ccc32)CC1 (centres undefined) | 22.58%
* O=C(O)c1ccc2c(c1)C1(CCCCC1)CN2C(=O)c1ccnnc1 | 11.85%
* CCS(=O)(=O)N1C[C@@H](O)[C@H](N(C)Cc2ccc(F)cc2)C1 | 11.84%
* Fc1ccc(Oc2nccnc2C2CCN(C3CCOCC3)CC2)cc1 | 9.043%
* O=S(=O)(C1CC1)N1C[C@H]2CCC[C@@]2(COCc2ccccn2)C1 | 14.7%
* CN(C(=O)c1cccc(Cl)c1)C1CCN(c2ccccn2)CC1 | 23.76%
* COC(=O)c1ccc2c(-c3ccnc(N[C@@H](C)CO)n3)c[nH]c2c1 | 10.92%
* Cc1ccc(O)c(CN(CCCn2ccnc2)Cc2ccc(C)s2)c1 | 16.08%
* C=C(C)COc1cccc(C(=O)N2CCC3(CCOCC3)CC2)c1 | 1.362%
* Cc1ccccc1NC(=O)N1CCN(Cc2noc(C3CC3)n2)CC1 | 12.32%
* C[C@@H]1CN(c2nc3c(cc2C(N)=O)CCC3)C[C@]1(C)O | 10%
* Cc1ccc(CN(Cc2cc(=O)n3cccc(C)c3n2)C(C)C)o1 | 8.239%
* CC1CCCCN1c1nc2c(c(=O)[nH]1)CCN(Cc1ccc(O)cc1)C2 (centres undefined) | 7.765%
* Cn1nc(CNc2ncccn2)c2c1CN(c1cnccn1)CC2 | 17.14%
* O=C(c1ncoc1C1CCCO1)N1CCCC2(CCCCC2)C1 (centres undefined) | 18.79%
* Cc1nc[nH]c1CN1CCCn2nc(CN3CCC(F)(F)CC3)cc2C1 | 3.093%
* CCS(=O)(=O)N1CCC2(CN(C(=O)c3cn(C)cn3)C2)C1 | 1.754%
* Cc1noc(NCc2ccc(F)cc2F)n1 | 2.903%
* CN(C)Cc1n[nH]c2c1CCN(Cc1cccs1)C2 | 10.95%
* Cc1nc2c(s1)C(N(C)C(=O)NCCCC(C)(C)CO)CCC2 (centres undefined) | 21.88%
* COCCC1COC2(CCN(C(=O)c3ccccc3)CC2)C1 (centres undefined) | 0.4975%
* CCCc1noc(CN2CCN(CCO)CC2)n1 | 16.84%
* CC(C)c1nccn1-c1cncc(C2CCCN(C3CCCCC3)C2)n1 (centres undefined) | 16.71%
* CN1CC2(CCN(S(=O)(=O)C3CC3)CC2)c2ccccc21 | 21.38%
* NC(=O)c1cnc(NC2CCN(c3ccccc3)CC2)c(Cl)c1 | 4.485%
* CCOC(=O)C1CCN(Cc2csc(C(C)(C)C)n2)CC1 | 5.164%
* Cc1ccoc1C(=O)N1CC[C@H]2[C@H](C[C@@H](CN3CCCC3)N2C)C1 | 4.396%
* CC(C)c1nc2c(n1C)CCN(Cc1cccc(C(N)=O)c1)C2 | 20.53%
* COc1ccc(C2CCCN2S(=O)(=O)N(C)C)cc1 (centres undefined) | -7.692%

Once more, the final 4:

Compound	inhibition
CCOC(=O)C1CCN(Cc2csc(C(C)(C)C)n2)CC1	5.164%
Cc1ccoc1C(=O)N1CC[C@H]2[C@H](C[C@@H](CN3CCCC3)N2C)C1	4.396%
CC(C)c1nc2c(n1C)CCN(Cc1cccc(C(N)=O)c1)C2	20.53%
COc1ccc(C2CCCN2S(=O)(=O)N(C)C)cc1 (centres undefined)	-7.692%

Data taken from ChEMBL document CHEMBL3988442, “University of Dundee, Small-Polar-MMV Screening Library” (2021).